Six molecules from article doi:10.1101/2025.06.20.660715 can be followed below.

Like-named read-outs stand apart in the source and are kept apart here. Results are given in words; binding and its absence hold for the method and conditions named. Binding seen in cells or lysates may run through a third protein. These calls come from enrichment with a bait or labelling near it, and not all partners need be listed.

Experiment in all cases: proximity labelling
For one assay, the target named is MiniTurbo-tagged KRAS^WT (UniProt P01116).
Assay [1] addresses BirA-tagged KRAS^WT (UniProt P01116).
Assay [2] has the same target. This is another data set of the same source.

B1: DENDD2A (protein, UniProt Q9ULE3 1-1009)
chain: MDMFSLDMIISDPAAEASRAGKKQLRGVQNPCPSARARPRHKSLNIKDKISEWEGKKEVPTPAPSRRADGQEDYLPSSTVERRSSDGVRTQVTEAKNGMRPGTESTEKERNKGAVNVGGQDPEPGQDLSQPEREVDPSWGRGREPRLGKLRFQNDPLSVLKQVKKLEQALKDGSAGLDPQLPGTCYSPHCPPDKAEAGSTLPENLGGGSGSEVSQRVHPSDLEGREPTPELVEDRKGSCRRPWDRSLENVYRGSEGSPTKPFINPLPKPRRTFKHAGEGDKDGKPGIGFRKEKRNLPPLPSLPPPPLPSSPPPSSVNRRLWTGRQKSSADHRKSYEFEDLLQSSSESSRVDWYAQTKLGLTRTLSEENVYEDILDPPMKENPYEDIELHGRCLGKKCVLNFPASPTSSIPDTLTKQSLSKPAFFRQNSERRNFKLLDTRKLSRDGTGSPSKISPPSTPSSPDDIFFNLGDPQNGRKKRKIPKLVLRINAIYEVRRGKKRVKRLSQSMESNSGKVTDENSESDSDTEEKLKAHSQRLVNVKSRLKQAPRYPSLARELIEYQERQLFEYFVVVSLHKKQAGAAYVPELTQQFPLKLERSFKFMREAEDQLKAIPQFCFPDAKDWVPVQQFTSETFSFVLTGEDGSRRFGYCRRLLPGGKGKRLPEVYCIVSRLGCFSLFSRILDEVEKRRGISPALVQPLMRSVMEAPFPALGKTILVKNFLPGSGTEVIELCRPLDSRLEHVDFESLFSSLSVRHLVCVFASLLLERRVIFIADKLSILSKCCHAMVALIYPFAWQHTYIPVLPPAMVDIVCSPTPFLIGLLSSSLPLLRELPLEEVLVVDLVNSRFLRQMDDEDSILPRKLQVALEHILEQRNELACEQDEGPLDGRHGPESSPLNEVVSEAFVRFFVEIVGHYSLFLTSGEREERTLQREAFRKAVSSKSLRHFLEVFMETQMFRGFIQERELRRQDAKGLFEVRAQEYLETLPSGEHSGVNKFLKGLGNKMKFLHKK
Regarding B1, the binding result in the assay with MiniTurbo-tagged KRAS^WT is reported as “binds”.

B2: FGD1 (protein, UniProt P98174 1-961)
chain: MHGHRAPGGAGPSEPEHPATNPPGAAPPACADSDPGASEPGLLARRGSGSALGGPLDPQFVGPSDTSLGAAPGHRVLPCGPSPQHHRALRFSYHLEGSQPRPGLHQGNRILVKSLSLDPGQSLEPHPEGPQRLRSDPGPPTETPSQRPSPLKRAPGPKPQVPPKPSYLQMPRMPPPLEPIPPPPSRPLPADPRVAKGLAPRAEASPSSAAVSSLIEKFEREPVIVASDRPVPGPSPGPPEPVMLPQPTSQPPVPQLPEGEASRCLFLLAPGPRDGEKVPNRDSGIDSISSPSNSEETCFVSDDGPPSHSLCPGPPALASVPVALADPHRPGSQEVDSDLEEEDDEEEEEEKDREIPVPLMERQESVELTVQQKVFHIANELLQTEKAYVSRLHLLDQVFCARLLEEARNRSSFPADVVHGIFSNICSIYCFHQQFLLPELEKRMEEWDRYPRIGDILQKLAPFLKMYGEYVKNFDRAVELVNTWTERSTQFKVIIHEVQKEEACGNLTLQHHMLEPVQRIPRYELLLKDYLLKLPHGSPDSKDAQKSLELIATAAEHSNAAIRKMERMHKLLKVYELLGGEEDIVSPTKELIKEGHILKLSAKNGTTQDRYLILFNDRLLYCVPRLRLLGQKFSVRARIDVDGMELKESSNLNLPRTFLVSGKQRSLELQARTEEEKKDWVQAINSTLLKHEQTLETFKLLNSTNREDEDTPPNSPNVDLGKRAPTPIREKEVTMCMRCQEPFNSITKRRHHCKACGHVVCGKCSEFRARLVYDNNRSNRVCTDCYVALHGVPGSSPACSQHTPQRRRSILEKQASVAAENSVICSFLHYMEKGGKGWHKAWFVVPENEPLVLYIYGAPQDVKAQRSLPLIGFEVGPPEAGERPDRRHVFKITQSHLSWYFSPETEELQRRWMAVLGRAGRGDTFCPGPTLSEDREMEEAPVAALGATAEPPESPQTRDKT
Turning to B2, the binding result with MiniTurbo-tagged KRAS^WT is recorded as “binds”.

B3: RGL3 (protein, UniProt Q3MIN7 1-710)
chain: MERTAGKELALAPLQDWGEETEDGAVYSVSLRRQRSQRRSPAEGPGGSQAPSPIANTFLHYRTSKVRVLRAARLERLVGELVFGDREQDPSFMPAFLATYRTFVPTACLLGFLLPPMPPPPPPGVEIKKTAVQDLSFNKNLRAVVSVLGSWLQDHPQDFRDHPAHSDLGSVRTFLGWAAPGSAEAQKAEKLLEDFLEEAEREQEEEPPQVWTGPPRVAQTSDPDSSEACAEEEEGLMPQGPQLLDFSVDEVAEQLTLIDLELFSKVRLYECLGSVWSQRDRPGAAGASPTVRATVAQFNTVTGCVLGSVLGAPGLAAPQRAQRLEKWIRIAQRCRELRNFSSLRAILSALQSNPIYRLKRSWGAVSREPLSTFRKLSQIFSDENNHLSSREILFQEEATEGSQEEDNTPGSLPSKPPPGPVPYLGTFLTDLVMLDTALPDMLEGDLINFEKRRKEWEILARIQQLQRRCQSYTLSPHPPILAALHAQNQLTEEQSYRLSRVIEPPAASCPSSPRIRRRISLTKRLSAKLAREKSSSPSGSPGDPSSPTSSVSPGSPPSSPRSRDAPAGSPPASPGPQGPSTKLPLSLDLPSPRPFALPLGSPRIPLPAQQSSEARVIRVSIDNDHGNLYRSILLTSQDKAPSVVRRALQKHNVPQPWACDYQLFQVLPGDRVLLIPDNANVFYAMSPVAPRDFMLRRKEGTRNTLSVSPS
As for B3, in the assay with MiniTurbo-tagged KRAS^WT, the binding entry was “binds”.

B4: RASA2 (protein, UniProt Q15283 1-850)
chain: MAAAAPAAAAASSEAPAASATAEPEAGDQDSREVRVLQSLRGKICEAKNLLPYLGPHKMRDCFCTINLDQEEVYRTQVVEKSLSPFFSEEFYFEIPRTFQYLSFYVYDKNVLQRDLRIGKVAIKKEDLCNHSGKETWFSLQPVDSNSEVQGKVHLELKLNELITENGTVCQQLVVHIKACHGLPLINGQSCDPYATVSLVGPSRNDQKKTKVKKKTSNPQFNEIFYFEVTRSSSYTRKSQFQVEEEDIEKLEIRIDLWNNGNLVQDVFLGEIKVPVNVLRTDSSHQAWYLLQPRDNGNKSSKTDDLGSLRLNICYTEDYVLPSEYYGPLKTLLLKSPDVQPISASAAYILSEICRDKNDAVLPLVRLLLHHDKLVPFATAVAELDLKDTQDANTIFRGNSLATRCLDEMMKIVGGHYLKVTLKPILDEICDSSKSCEIDPIKLKEGDNVENNKENLRYYVDKLFNTIVKSSMSCPTVMCDIFYSLRQMATQRFPNDPHVQYSAVSSFVFLRFFAVAVVSPHTFHLRPHHPDAQTIRTLTLISKTIQTLGSWGSLSKSKSSFKETFMCEFFKMFQEEGYIIAVKKFLDEISSTETKESSGTSEPVHLKEGEMYKRAQGRTRIGKKNFKKRWFCLTSRELTYHKQPGSKDAIYTIPVKNILAVEKLEESSFNKKNMFQVIHTEKPLYVQANNCVEANEWIDVLCRVSRCNQNRLSFYHPSVYLNGNWLCCQETGENTLGCKPCTAGVPADIQIDIDEDRETERIYSLFTLSLLKLQKMEEACGTIAVYQGPQKEPDDYSNFVIEDSVTTFKTIQQIKSIIEKLDEPHEKYRKKRSSSAKYGSKENPIVGKAS
For B4, the binding result with BirA-tagged KRAS^WT [1] and in the assay with BirA-tagged KRAS^WT [2] was “binds” each time.

B5: SYNJ2 (enzyme, UniProt O15056 1-1496)
chain: MALSKGLRLLGRLGAEGDCSVLLEARGRDDCLLFEAGTVATLAPEEKEVIKGQYGKLTDAYGCLGELRLKSGGTSLSFLVLVTGCTSVGRIPDAEIYKITATDFYPLQEEAKEEERLIALKKILSSGVFYFSWPNDGSRFDLTVRTQKQGDDSSEWGNSFFWNQLLHVPLRQHQVSCCDWLLKIICGVVTIRTVYASHKQAKACLVSRVSCERTGTRFHTRGVNDDGHVSNFVETEQMIYMDDGVSSFVQIRGSVPLFWEQPGLQVGSHHLRLHRGLEANAPAFDRHMVLLKEQYGQQVVVNLLGSRGGEEVLNRAFKKLLWASCHAGDTPMINFDFHQFAKGGKLEKLETLLRPQLKLHWEDFDVFTKGENVSPRFQKGTLRMNCLDCLDRTNTVQSFIALEVLHLQLKTLGLSSKPIVDRFVESFKAMWSLNGHSLSKVFTGSRALEGKAKVGKLKDGARSMSRTIQSNFFDGVKQEAIKLLLVGDVYGEEVADKGGMLLDSTALLVTPRILKAMTERQSEFTNFKRIRIAMGTWNVNGGKQFRSNVLRTAELTDWLLDSPQLSGATDSQDDSSPADIFAVGFEEMVELSAGNIVNASTTNKKMWGEQLQKAISRSHRYILLTSAQLVGVCLYIFVRPYHVPFIRDVAIDTVKTGMGGKAGNKGAVGIRFQFHSTSFCFICSHLTAGQSQVKERNEDYKEITQKLCFPMGRNVFSHDYVFWCGDFNYRIDLTYEEVFYFVKRQDWKKLLEFDQLQLQKSSGKIFKDFHEGAINFGPTYKYDVGSAAYDTSDKCRTPAWTDRVLWWRKKHPFDKTAGELNLLDSDLDVDTKVRHTWSPGALQYYGRAELQASDHRPVLAIVEVEVQEVDVGARERVFQEVSSFQGPLDATVVVNLQSPTLEEKNEFPEDLRTELMQTLGSYGTIVLVRINQGQMLVTFADSHSALSVLDVDGMKVKGRAVKIRPKTKDWLKGLREEIIRKRDSMAPVSPTANSCLLEENFDFTSLDYESEGDILEDDEDYLVDEFNQPGVSDSELGGDDLSDVPGPTALAPPSKSPALTKKKQHPTYKDDADLVELKRELEAVGEFRHRSPSRSLSVPNRPRPPQPPQRPPPPTGLMVKKSASDASISSGTHGQYSILQTARLLPGAPQQPPKARTGISKPYNVKQIKTTNAQEAEAAIRCLLEARGGASEEALSAVAPRDLEASSEPEPTPGAAKPETPQAPPLLPRRPPPRVPAIKKPTLRRTGKPLSPEEQFEQQTVHFTIGPPETSVEAPPVVTAPRVPPVPKPRTFQPGKAAERPSHRKPASDEAPPGAGASVPPPLEAPPLVPKVPPRRKKSAPAAFHLQVLQSNSQLLQGLTYNSSDSPSGHPPAAGTVFPQGDFLSTSSATSPDSDGTKAMKPEAAPLLGDYQDPFWNLLHHPKLLNNTWLSKSSDPLDSGTRSPKRDPIDPVSAGASAAKAELPPDHEHKTLGHWVTISDQEKRTALQVFDPLAKT
Consider B5, for which the binding result with MiniTurbo-tagged KRAS^WT is recorded as “binds”.

B6: MTMR12 (protein, UniProt Q9C0I1 1-747)
chain: MLGKGVVGGGGGTKAPKPSFVSYVRPEEIHTNEKEVTEKEVTLHLLPGEQLLCEASTVLKYVQEDSCQHGVYGRLVCTDFKIAFLGDDESALDNDETQFKNKVIGENDITLHCVDQIYGVFDEKKKTLFGQLKKYPEKLIIHCKDLRVFQFCLRYTKEEEVKRIVSGIIHHTQAPKLLKRLFLFSYATAAQNNTVTDPKNHTVMFDTLKDWCWELERTKGNMKYKAVSVNEGYKVCERLPAYFVVPTPLPEENVQRFQGHGIPIWCWSCHNGSALLKMSALPKEQDDGILQIQKSFLDGIYKTIHRPPYEIVKTEDLSSNFLSLQEIQTAYSKFKQLFLIDNSTEFWDTDIKWFSLLESSSWLDIIRRCLKKAIEITECMEAQNMNVLLLEENASDLCCLISSLVQLMMDPHCRTRIGFQSLIQKEWVMGGHCFLDRCNHLRQNDKEEVPVFLLFLDCVWQLVHQHPPAFEFTETYLTVLSDSLYIPIFSTFFFNSPHQKDTNMGREGQDTQSKPLNLLTVWDWSVQFEPKAQTLLKNPLYVEKPKLDKGQRKGMRFKHQRQLSLPLTQSKSSPKRGFFREETDHLIKNLLGKRISKLINSSDELQDNFREFYDSWHSKSTDYHGLLLPHIEGPEIKVWAQRYLRWIPEAQILGGGQVATLSKLLEMMEEVQSLQEKIDERHHSQQAPQAEAPCLLRNSARLSSLFPFALLQRHSSKPVLPTSGWKALGDEDDLAKREDEFVDLGDV
On to B6, for which the binding entry in the assay with MiniTurbo-tagged KRAS^WT is reported as “binds”.
